Laboratory results reported in the supplement of paper PMC10849652.
Some of the results follow.

Chains of the proteins cited; added tags and fusions are not shown. Lines headed by an entry give the natural chain unless they say otherwise; changes in a name come on top.
UniProt Q14534: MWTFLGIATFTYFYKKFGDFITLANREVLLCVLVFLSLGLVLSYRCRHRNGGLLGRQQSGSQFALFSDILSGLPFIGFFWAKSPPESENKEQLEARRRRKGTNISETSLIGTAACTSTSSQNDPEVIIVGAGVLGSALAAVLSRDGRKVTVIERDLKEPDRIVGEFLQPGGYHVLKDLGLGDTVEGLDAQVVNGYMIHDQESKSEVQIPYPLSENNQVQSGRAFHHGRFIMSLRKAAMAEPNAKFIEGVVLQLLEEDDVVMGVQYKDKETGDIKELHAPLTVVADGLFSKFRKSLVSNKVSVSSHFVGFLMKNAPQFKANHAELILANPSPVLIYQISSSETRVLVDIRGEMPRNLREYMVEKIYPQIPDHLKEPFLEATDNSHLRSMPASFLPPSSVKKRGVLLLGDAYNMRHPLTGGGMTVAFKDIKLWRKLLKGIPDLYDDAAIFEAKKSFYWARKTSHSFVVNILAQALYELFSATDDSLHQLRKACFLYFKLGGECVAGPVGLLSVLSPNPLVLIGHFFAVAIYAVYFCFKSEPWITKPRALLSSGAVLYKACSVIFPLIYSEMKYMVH
UniProt Q9NRC1: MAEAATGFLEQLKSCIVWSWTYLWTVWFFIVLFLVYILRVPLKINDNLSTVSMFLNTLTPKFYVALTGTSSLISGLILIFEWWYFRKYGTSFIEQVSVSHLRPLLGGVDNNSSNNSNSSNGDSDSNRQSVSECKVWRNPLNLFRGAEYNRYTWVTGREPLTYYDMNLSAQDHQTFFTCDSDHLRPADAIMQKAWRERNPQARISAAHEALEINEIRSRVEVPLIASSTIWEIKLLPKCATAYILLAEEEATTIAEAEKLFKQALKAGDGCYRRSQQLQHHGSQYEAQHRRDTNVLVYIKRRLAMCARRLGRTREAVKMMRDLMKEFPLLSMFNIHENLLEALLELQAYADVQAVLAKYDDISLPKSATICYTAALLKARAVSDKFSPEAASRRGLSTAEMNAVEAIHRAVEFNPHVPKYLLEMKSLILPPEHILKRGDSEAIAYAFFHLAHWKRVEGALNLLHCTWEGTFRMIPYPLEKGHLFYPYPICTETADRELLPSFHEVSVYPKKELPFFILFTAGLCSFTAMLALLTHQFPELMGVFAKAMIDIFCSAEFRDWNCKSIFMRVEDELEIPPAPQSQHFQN
UniProt P42226: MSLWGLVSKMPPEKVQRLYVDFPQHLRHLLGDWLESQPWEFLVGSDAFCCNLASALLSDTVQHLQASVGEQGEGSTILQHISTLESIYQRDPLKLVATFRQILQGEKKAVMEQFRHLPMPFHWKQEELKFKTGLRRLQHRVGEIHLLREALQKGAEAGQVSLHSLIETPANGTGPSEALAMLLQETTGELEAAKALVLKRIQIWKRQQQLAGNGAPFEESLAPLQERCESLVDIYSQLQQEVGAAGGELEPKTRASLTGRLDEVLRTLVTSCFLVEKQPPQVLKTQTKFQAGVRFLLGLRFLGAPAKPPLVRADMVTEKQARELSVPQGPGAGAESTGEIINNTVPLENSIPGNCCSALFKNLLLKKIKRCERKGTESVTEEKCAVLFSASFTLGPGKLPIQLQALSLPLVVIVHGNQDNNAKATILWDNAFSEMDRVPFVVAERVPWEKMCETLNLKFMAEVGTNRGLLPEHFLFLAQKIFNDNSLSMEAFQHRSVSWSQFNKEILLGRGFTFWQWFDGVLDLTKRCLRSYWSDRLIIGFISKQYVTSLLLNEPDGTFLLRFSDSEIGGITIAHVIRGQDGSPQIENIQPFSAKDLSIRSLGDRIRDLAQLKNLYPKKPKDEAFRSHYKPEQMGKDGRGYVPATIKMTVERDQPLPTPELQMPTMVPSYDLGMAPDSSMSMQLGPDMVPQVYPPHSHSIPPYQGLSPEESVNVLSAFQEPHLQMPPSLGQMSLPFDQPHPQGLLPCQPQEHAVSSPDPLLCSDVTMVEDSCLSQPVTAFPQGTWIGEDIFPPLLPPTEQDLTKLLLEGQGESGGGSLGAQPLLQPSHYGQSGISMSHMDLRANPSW
UniProt P42229: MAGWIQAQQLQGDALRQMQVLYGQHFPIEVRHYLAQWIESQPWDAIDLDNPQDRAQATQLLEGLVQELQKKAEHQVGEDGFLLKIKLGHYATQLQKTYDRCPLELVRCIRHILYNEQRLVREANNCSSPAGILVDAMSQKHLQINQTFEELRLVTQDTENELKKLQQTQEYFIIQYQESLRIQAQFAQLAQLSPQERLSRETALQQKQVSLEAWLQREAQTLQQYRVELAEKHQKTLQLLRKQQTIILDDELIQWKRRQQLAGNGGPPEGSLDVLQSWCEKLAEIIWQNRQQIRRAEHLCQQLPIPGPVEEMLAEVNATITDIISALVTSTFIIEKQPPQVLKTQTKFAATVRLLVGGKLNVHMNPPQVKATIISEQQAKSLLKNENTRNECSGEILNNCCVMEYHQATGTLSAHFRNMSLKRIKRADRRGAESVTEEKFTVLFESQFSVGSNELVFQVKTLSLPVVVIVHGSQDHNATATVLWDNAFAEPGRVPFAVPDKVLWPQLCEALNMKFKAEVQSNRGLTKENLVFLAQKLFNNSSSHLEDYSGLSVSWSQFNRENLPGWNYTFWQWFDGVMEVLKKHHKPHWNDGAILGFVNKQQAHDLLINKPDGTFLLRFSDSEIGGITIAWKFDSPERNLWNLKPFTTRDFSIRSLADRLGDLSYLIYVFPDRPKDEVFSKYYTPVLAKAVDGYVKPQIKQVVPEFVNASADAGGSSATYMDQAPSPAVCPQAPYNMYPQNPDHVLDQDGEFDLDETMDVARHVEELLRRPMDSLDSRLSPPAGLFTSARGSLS
UniProt P51692: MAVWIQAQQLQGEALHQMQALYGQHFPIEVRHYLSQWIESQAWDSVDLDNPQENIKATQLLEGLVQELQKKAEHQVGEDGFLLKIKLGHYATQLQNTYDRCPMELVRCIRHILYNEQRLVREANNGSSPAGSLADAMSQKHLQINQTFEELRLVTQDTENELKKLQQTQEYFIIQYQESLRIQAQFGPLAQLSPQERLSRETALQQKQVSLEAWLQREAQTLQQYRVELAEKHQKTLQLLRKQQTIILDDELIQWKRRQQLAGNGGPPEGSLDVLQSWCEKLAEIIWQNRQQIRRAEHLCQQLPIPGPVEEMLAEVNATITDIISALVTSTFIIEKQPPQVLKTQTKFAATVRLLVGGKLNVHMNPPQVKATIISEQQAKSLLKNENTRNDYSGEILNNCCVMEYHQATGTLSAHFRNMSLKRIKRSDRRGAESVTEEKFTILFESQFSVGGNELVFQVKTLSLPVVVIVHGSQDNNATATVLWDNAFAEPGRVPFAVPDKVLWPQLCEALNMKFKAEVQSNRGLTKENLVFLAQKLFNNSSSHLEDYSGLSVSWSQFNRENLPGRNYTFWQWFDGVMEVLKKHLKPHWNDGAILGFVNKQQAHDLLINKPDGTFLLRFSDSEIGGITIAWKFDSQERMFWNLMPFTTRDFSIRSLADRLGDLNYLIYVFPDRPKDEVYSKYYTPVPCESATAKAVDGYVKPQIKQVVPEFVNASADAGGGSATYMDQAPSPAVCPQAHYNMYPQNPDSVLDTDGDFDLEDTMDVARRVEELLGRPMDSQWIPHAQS
UniProt Q9UHB9: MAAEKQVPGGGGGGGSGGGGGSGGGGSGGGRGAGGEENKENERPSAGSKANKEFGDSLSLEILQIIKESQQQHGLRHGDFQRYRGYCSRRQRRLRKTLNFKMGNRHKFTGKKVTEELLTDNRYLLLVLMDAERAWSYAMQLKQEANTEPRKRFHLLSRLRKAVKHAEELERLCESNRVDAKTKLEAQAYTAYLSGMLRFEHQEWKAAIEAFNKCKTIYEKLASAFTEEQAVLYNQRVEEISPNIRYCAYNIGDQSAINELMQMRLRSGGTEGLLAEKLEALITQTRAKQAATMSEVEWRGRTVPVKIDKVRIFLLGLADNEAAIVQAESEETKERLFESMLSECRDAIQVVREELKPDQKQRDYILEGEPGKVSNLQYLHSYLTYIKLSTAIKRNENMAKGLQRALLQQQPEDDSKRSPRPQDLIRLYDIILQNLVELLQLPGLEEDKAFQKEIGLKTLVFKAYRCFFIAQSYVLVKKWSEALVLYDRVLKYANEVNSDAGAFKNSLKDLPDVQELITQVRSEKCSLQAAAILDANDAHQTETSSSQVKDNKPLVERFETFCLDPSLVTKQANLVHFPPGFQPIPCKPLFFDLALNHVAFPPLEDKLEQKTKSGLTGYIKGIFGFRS
UniProt Q9GZT4: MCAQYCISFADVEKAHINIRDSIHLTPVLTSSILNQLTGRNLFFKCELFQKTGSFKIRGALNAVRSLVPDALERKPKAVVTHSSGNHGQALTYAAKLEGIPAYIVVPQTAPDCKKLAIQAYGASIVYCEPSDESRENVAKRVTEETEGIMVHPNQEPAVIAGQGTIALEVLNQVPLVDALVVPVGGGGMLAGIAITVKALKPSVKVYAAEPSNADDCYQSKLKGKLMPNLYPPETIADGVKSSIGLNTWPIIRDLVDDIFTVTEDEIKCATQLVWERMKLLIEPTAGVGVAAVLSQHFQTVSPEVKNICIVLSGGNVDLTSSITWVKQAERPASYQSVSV
UniProt Q15468: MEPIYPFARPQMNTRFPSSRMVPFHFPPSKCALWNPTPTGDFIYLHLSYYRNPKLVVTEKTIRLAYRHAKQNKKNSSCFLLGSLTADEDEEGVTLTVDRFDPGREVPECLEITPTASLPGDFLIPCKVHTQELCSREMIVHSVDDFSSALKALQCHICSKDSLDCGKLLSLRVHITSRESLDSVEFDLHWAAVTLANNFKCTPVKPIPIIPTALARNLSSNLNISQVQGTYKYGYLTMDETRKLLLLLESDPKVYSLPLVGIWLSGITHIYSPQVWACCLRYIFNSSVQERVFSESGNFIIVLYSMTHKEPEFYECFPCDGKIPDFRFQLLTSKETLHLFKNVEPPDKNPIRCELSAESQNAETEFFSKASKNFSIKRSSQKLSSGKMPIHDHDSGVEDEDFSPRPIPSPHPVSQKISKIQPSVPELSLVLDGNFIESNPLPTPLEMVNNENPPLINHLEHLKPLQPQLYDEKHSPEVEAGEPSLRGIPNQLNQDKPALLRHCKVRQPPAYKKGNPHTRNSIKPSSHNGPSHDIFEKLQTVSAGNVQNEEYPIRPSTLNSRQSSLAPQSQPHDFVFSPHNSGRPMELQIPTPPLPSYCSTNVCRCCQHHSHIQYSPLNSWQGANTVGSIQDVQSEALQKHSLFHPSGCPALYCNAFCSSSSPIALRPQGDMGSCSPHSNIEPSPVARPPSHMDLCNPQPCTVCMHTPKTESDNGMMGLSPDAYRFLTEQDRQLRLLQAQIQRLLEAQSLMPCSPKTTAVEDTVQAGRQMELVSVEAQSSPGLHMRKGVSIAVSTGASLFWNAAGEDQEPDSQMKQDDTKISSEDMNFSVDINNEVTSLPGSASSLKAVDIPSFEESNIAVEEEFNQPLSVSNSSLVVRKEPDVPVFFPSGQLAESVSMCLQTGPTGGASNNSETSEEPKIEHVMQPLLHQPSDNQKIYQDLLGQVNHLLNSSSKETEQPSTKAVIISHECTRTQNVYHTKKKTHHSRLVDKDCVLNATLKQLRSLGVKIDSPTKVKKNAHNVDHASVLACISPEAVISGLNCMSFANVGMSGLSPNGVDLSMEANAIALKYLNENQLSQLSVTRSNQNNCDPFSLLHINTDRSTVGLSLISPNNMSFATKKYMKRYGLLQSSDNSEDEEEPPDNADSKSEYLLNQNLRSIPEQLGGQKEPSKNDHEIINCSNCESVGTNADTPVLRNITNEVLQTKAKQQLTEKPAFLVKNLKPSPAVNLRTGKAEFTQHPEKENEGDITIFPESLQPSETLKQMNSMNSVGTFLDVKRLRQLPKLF

Experiments:
Experiment in all cases: log2 fold change, soluble protein after heating vs DMSO (PISA); higher = thermal stabilisation; K562 lysate, 10 uM; active = over 0.2 and 3.5 SD of the protein, either way, in both replicates (recomputed)
[1] = compound: C#Cc1cccc(Nc2ncnc3cc(OCCOC)c(OCCOC)cc23)c1 [erlotinib]
Outline: (§1)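 K562 pellets were dounce-homogenised in PBS pH 7.4 with 1 mM MgCl2, and the crude extract at 1 mg/mL protein was treated with 10 μM compound for 30 min. Aliquots were heated for 3 min across 48°C-58°C, pooled, and brought to 0.5% NP-40 at 4°C; soluble protein was the supernatant after 21,000xg for 90 min. Soluble protein was quantified by TMTpro 16plex LC-MS/MS with channel sums equalised, and reported as log2 fold change in thermal stability against DMSO controls, with values from duplicates.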

[2] = compound: C/C(=N\NC(=O)C1=CC(=CC=C1)S(=O)(=O)N2CCOCC2)/C3=C(C=CC(=C3)Cl)O
Outline: as §1

[3] = compound: C1=CC(=CC=C1C2=NC3=C(N2)C=C(C=C3)C(=O)N)OC4=CC=C(C=C4)Cl
Outline: as §1

[4] = compound: C1=CC2=C(C=CC(=C2)/C=C\3/C(=O)NC(=NCC4=CC=CS4)S3)N=C1
Outline: as §1

[5] = compound: C1=CC2=NC=CN=C2C=C1/C=C/3\C(=O)NC(=O)S3
Outline: as §1

[6] = compound: C1=CC=C(C=C1)C2=NC(=C(N2)C3=CC=NC=C3)C4=CC(=C(C=C4)Cl)O
Outline: as §1

[7] = compound: C1=CC=C2C(=C1)C3=NNC4=CC=CC(=C43)C2=O
Outline: as §1

[8] = compound: C1CCN(C1)C(=O)NC2=CC=CC(=C2)NC3=NC=C(C(=N3)NCCC4=CN=CN4)Br
Outline: as §1

[9] = compound: C1CN(CCC1(CC2=CC=C(C=C2)Cl)N)C3=NC=NC4=C3C=CN4
Outline: as §1

[10] = compound: C1COCCN1CCN2C3=CC=CC=C3N=C2NC(=O)C4=CC(=CC=C4)[N+](=O)[O-] [IRAK-1-4 Inhibitor I]
Outline: as §1

[11] = compound: C=CC(=O)N1CCC[C@@H](n2nc(-c3ccc(Oc4ccccc4)cc3)c3c(N)ncnc32)C1 [ibrutinib]
Outline: as §1

[12] = compound: CC(=O)c1cnc2ccc(-c3cc(Cl)c(O)c(Cl)c3)nc2c1N[C@H]1CC[C@H](CN(C)C)CC1
Outline: as §1

[13] = compound: CC(C)(C)Cn1c(N)nc2ccc(-c3[nH]c(C(C)(C)C)nc3-c3ccc(F)cc3)nc21 [ralimetinib]
Outline: as §1

[14] = compound: CC(C)(O)CC(=O)NCCn1ccc2ncnc(Nc3ccc(Oc4cccc(C(F)(F)F)c4)c(Cl)c3)c21
Outline: as §1

[15] = compound: CC(C)C1=C2N=C(C=C(N2N=C1)NCC3=CC=CC=C3)NCCCCCCN
Outline: as §1

[16] = compound: CC1=C(C(CC(=O)N1)C2=CC=C(C=C2)C(F)(F)F)C(=O)NC3=C(C=C4C(=C3)C=NN4)F
Outline: as §1

[17] = compound: CC1=C(C2=C(C=C1)C(=O)C3=CC=CC=C3N2CCCN)C
Outline: as §1

[18] = compound: CC1=C(C=C(C=C1)NC(=O)C2=CC(=CC=C2)C(C)(C)C#N)NC3=CC4=C(C=C3)N=CN(C4=O)C
Outline: as §1

[19] = compound: CC1=C(C=C(C=C1)NC(=O)C2=CC(=CC=C2)N(C)C)NC(=O)C3=CC=C(C=C3)O
Outline: as §1

[20] = compound: CC1=CC=C(C=C1)SC2=C3C=C(SC3=CN=C2)C(=O)N
Outline: as §1

Measured: log2 fold change

SQLE (UniProt Q14534)
inactive: [1] -0.025 | [2] 0.056 | [3] 0.019 | [4] -0.03 | [5] -0.028 | [6] 0.007 | [7] 0.074 | [8] -0.019 | [9] -0.084 | [10] 0.023 | [11] 0.028 | [12] 0.051 | [13] 0.081 | [14] -0.047 | [15] 0 | [16] -0.02 | [17] -0.006 | [18] 0.039 | [19] -0.06 | [20] -0.027

ST7 (UniProt Q9NRC1)
inactive: [1] -0.001 | [2] 0.005 | [3] -0.054 | [4] -0.011 | [5] -0.032 | [6] 0.014 | [7] -0.132 | [8] -0.048 | [9] -0.011 | [10] -0.05 | [11] 0.082 | [12] 0.015 | [13] 0 | [14] -0.069 | [15] 0.025 | [16] 0.061 | [17] -0.042 | [18] -0.104 | [19] 0.029 | [20] 0.126

STAT6 (UniProt P42226)
inactive: [1] -0.004 | [2] 0.049 | [3] 0.043 | [4] -0.001 | [5] -0.019 | [6] -0.024 | [7] -0.04 | [8] -0.022 | [9] -0.007 | [10] -0.003 | [11] 0 | [12] -0.021 | [13] 0.027 | [14] -0.055 | [15] 0.015 | [16] 0.016 | [17] -0.031 | [18] 0.035 | [19] 0.078 | [20] 0.041

2 consecutive records from above:
SQLE (UniProt Q14534)
inactive: [1] -0.025 | [2] 0.056 | [3] 0.019 | [4] -0.03 | [5] -0.028 | [6] 0.007 | [7] 0.074 | [8] -0.019 | [9] -0.084 | [10] 0.023 | [11] 0.028 | [12] 0.051 | [13] 0.081 | [14] -0.047 | [15] 0 | [16] -0.02 | [17] -0.006 | [18] 0.039 | [19] -0.06 | [20] -0.027

ST7 (UniProt Q9NRC1)
inactive: [1] -0.001 | [2] 0.005 | [3] -0.054 | [4] -0.011 | [5] -0.032 | [6] 0.014 | [7] -0.132 | [8] -0.048 | [9] -0.011 | [10] -0.05 | [11] 0.082 | [12] 0.015 | [13] 0 | [14] -0.069 | [15] 0.025 | [16] 0.061 | [17] -0.042 | [18] -0.104 | [19] 0.029 | [20] 0.126

(further entries)

STAT5A (UniProt P42229)
inactive: [1] 0.035 | [2] 0.024 | [3] -0.018 | [4] 0.036 | [5] 0.011 | [6] 0.02 | [7] 0.001 | [8] -0.003 | [9] 0.05 | [10] 0.005 | [11] 0.012 | [12] 0.026 | [13] -0.004 | [14] 0.01 | [15] 0.025 | [16] -0.019 | [17] 0.021 | [18] 0.01 | [19] 0.021 | [20] -0.004

STAT5B (UniProt P51692)
inactive: [1] 0.023 | [2] -0.019 | [3] -0.006 | [4] -0.043 | [5] 0.038 | [6] 0.014 | [7] -0.027 | [8] 0 | [9] 0.026 | [10] 0.015 | [11] -0.017 | [12] 0.017 | [13] -0.026 | [14] -0.024 | [15] -0.013 | [16] -0.03 | [17] -0.013 | [18] 0.029 | [19] 0.01 | [20] -0.031

SRP68 (UniProt Q9UHB9)
inactive: [1] 0.018 | [2] 0.021 | [3] 0.052 | [4] 0.035 | [5] 0 | [6] -0.019 | [7] -0.025 | [8] -0.04 | [9] -0.013 | [10] -0.006 | [11] -0.071 | [12] -0.015 | [13] -0.019 | [14] -0.002 | [15] 0 | [16] 0.01 | [17] -0.045 | [18] -0.035 | [19] 0.009 | [20] 0.001

SRR (UniProt Q9GZT4)
inactive: [1] -0.046 | [2] 0.044 | [3] 0.078 | [4] 0.045 | [5] -0.007 | [6] 0.058 | [7] -0.026 | [8] 0.058 | [9] -0.025 | [10] 0.05 | [11] -0.048 | [12] 0.097 | [13] -0.047 | [14] -0.141 | [15] 0.037 | [16] 0.01 | [17] 0.102 | [18] 0.011 | [19] 0.163 | [20] -0.044

STIL isoform 2 (UniProt Q15468)
inactive: [1] 0.042 | [2] 0.09 | [3] 0.021 | [4] -0.048 | [5] -0.015 | [6] 0.037 | [7] 0.052 | [8] -0.114 | [9] -0.036 | [10] -0.031 | [11] 0.045 | [12] 0.009 | [13] -0.049 | [14] 0.023 | [15] 0.018 | [16] 0.026 | [17] 0.014 | [18] 0.014 | [19] 0.014 | [20] 0
